This passage reports binding results from paper PMC7823470, “Arabidopsis Plant Natriuretic Peptide Is a Novel Interactor of Rubisco Activase” (Life, 2020).

Amino acid sequences for entries named in this document (tags omitted). A change or cut given only in a name is not applied to a line headed by its entry.
UniProt Q9ZV52: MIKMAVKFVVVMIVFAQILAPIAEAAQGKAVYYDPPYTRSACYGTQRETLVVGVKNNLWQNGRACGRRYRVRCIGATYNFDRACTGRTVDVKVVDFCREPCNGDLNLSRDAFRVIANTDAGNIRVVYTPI

Results are given in words; binding and its absence hold for the method and conditions named. Binding calls can cover weak binding; strength is not graded here. Tags and fused reporters may be left off the sequences shown.

The target of the test is T1, purified recombinant N-terminally His-tagged rubisco activase (rRCA) (Arabidopsis thaliana) (UniProt P10896).
T1 sequence: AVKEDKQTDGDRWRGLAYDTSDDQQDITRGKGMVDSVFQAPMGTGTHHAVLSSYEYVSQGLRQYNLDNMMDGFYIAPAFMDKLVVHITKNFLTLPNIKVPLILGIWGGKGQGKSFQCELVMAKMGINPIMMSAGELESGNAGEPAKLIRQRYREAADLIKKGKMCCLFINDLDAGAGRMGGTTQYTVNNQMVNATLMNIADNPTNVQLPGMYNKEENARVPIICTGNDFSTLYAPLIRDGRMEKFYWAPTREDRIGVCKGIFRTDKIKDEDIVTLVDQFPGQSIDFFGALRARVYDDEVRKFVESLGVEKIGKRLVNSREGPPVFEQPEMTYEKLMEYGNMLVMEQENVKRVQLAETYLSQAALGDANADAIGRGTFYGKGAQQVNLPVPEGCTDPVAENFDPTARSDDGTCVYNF
The test is described as follows: SPR; rRCA immobilised by amine coupling on a CM5 chip, rAtPNP-A as analyte, reference surface blank activated; Biacore T100, 20 °C; both purified.

With “purified recombinant N-terminally His-tagged AtPNP-A (rAtPNP-A) (from UniProt Q9ZV52)”, the binding entry was “binds”.
